From patent publication US20260265262A1, “CDK2 INHIBITORS AND METHODS OF USING THE SAME” (Cedilla Therapeutics, Inc., priority 2022, published 2026)
The match of structure and compound is tentative.

Experiments:
[1] = test system: Kuramochi cells; assay: IncuCyte cell proliferation assay; format: cell-based; conditions: read-out: IncuCyte Kuramochi RB-WT: IC50; Kuramochi cells labeled with mApple-H2B, cell count 0 to 72 hours, 20 μM top concentration
Procedure: IncuCyte® assay was used to measure the effect of disclosed compounds on cell proliferation. Fluorescent microscopy images of cells were taken immediately after compound treatment and 72 hours later. Image analysis software was used to obtain cell counts as a function of compound concentration. Kuramochi cells labeled with mApple-H2B were seeded on 384-well assay-ready plates. Plates were placed in an IncuCyte® (Sartorius) and scanned at 0 and 72 hours. IncuCyte® software was used to count the number of fluorescent nuclei in each well. The fold change in cell count from 0 to 72 hours in wells treated with increasing compounds concentrations (10 pts, 1/2 log dilution, 20 μM top concentration) was normalized to DMSO control wells. The normalized cell counts were fit with dose response curves and a […] was calculated.

[2] = target: CDK2/Cyclin E1 (Homo sapiens, UniProt P24941); assay: ADP-Glo Luminescent Kinase Assay (CDK2/E1-37C); format: biochemical; conditions: read-out: ADPGLO (CDK2/E1-37C): IC50; 0.18 nM CDK2/Cyclin E1, 100 μM ATP, 1.5 μM Histone H1, 37° C., 60 min pre-incubation
Procedure: Inhibition of CDK2/Cyclin E1 activity by the presence of small molecules was evaluated using ADP-Glo Luminescent Kinase Assay (Promega). Activated CDK2/Cyclin E1 was incubated with its substrate Histone H1 (SignalChem H10-54N) in the kinase reaction buffer (100 μM ATP, 50 mM HEPES pH 7.5, 10 mM MgCl2, 1 mM EDTA, 2 mM DTT, 0.01% Brij35, 0.5 mg/mL BSA). Luminescence was recorded with an Envision plate reader (PerkinElmer).
Dose titrations of inhibitors in 100% DMSO were combined with 0.36 nM CDK2/Cyclin E1 in reaction buffer. The mixtures were incubated for 60 minutes at 37° C. before the addition of ATP and Histone H1 substrate to initiate the kinase reaction. The final conditions were 0.18 nM CDK2/Cyclin E1, 100 μM ATP, and 1.5 μM Histone H1. The reactions were incubated at 37° C. for 90 minutes before being stopped with the addition of ADP-Glo reagent. This mixture was incubated at room temperature for 60 minutes before Kinase Detection Solution is added to generate luminescence. The stopped reactions were analyzed on an Envision plate reader. The conversion ratios were normalized to yield % activity, plotted against compound concentration, and fit to a four-parameter equation to determine the IC50 for each compound.

Compound	IC50 [1]	IC50 [2]
COC(=O)c1ccccc1C1CCN(C(=O)[C@@H](NC(=O)[C@@H]2CN(C(=O)c3cnn(CC4CCN(C(=O)OC(C)(C)C)CC4)c3)CC23CN(C(=O)C2(C(F)(F)F)CC2)C3)[C@@H](C)OCC23CCC(CC2)OC3)CC1	5 to 20 µM	0.5 to 5 µM
C[C@@H](OCC12CCC(CC1)OC2)[C@H](NC(=O)[C@@H]1CN(C(=O)c2cnn(Cc3ccc(C(F)(F)F)cc3)c2)CC12CN(C(=O)C1(C(F)(F)F)CC1)C2)C(=O)N1CCC(c2nnn[nH]2)CC1 [Example I-100]	> 20 µM	< 0.5 µM
